According to PubChem BioAssay AID651647 (Sanford-Burnham Center for Chemical Genomics, 2012):
The list shows a part of the results.

Test: MT1-MMP activation inhibitors, cellular reporter – HT1080 RFP-PRO-GFP cells, GFP/RFP fluorescence, primary screen (AID 651647)
Conditions: GFP/RFP ratio fluorescence, overnight, RFP expression control read, at 20 µM
Method in brief: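 Assay system: RFP-PRO-GFP reporter HT1080 cells; read-out basis: GFP/RFP fluorescence ratio; benchmarks: DMSO wells and RFP-L50D-GFP cells; doses: 20 µM single dose, 1% DMSO; schedule: overnight cell settling, then overnight compound exposure, 37 °C, 5% CO2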

SMILES | RFP signal change [%]
O=[As](O)(c1ccc(O)cc1)c1ccccc1O | 1.01
COc1cc(C(=O)NCC2(N3CCOCC3)CCCCC2)ccc1OCC(C)C | -0.567
O=[N+]([O-])c1ccc(-c2cc([N+](=O)[O-])c(O)c([N+](=O)[O-])c2)cc1 | -2.27
O=[N+]([O-])c1cc(Oc2ccc([N+](=O)[O-])cc2C(F)(F)F)cc([N+](=O)[O-])c1 | -2.36
COc1ccc(N/C(=N/P(=O)(N2CCOCC2)N2CCOCC2)N2CCOCC2)cc1 | 0.991
COc1ccccc1-c1ccccn1.O=[N+]([O-])c1cc([N+](=O)[O-])c(O)c([N+](=O)[O-])c1 | 6.52
O=P1(N(CCCl)CCCl)Nc2ccccc2N1 | -1.34
O=P1(N(CCCl)CCCl)OCCCN1CCCl (stereo not given) | 4.17
COc1ccc2nc(NP(=O)(c3ccccc3)c3ccccc3)sc2c1 | 2.49
COc1cc(I)ccc1[As](=O)(O)O | 8.96
Cc1c2c(nc3ccccc13)SC(C(Cl)Cl)C2 (stereo not given) | -3.38
O=C(OC1CN2CCC1CC2)C12CC3CC(CC(C3)C1)C2 (stereo not given) | 4.68
Cc1cc(=O)[nH]c(N[N+](=O)[O-])n1 | 4.6
CCN(CC)CCCOC(=O)C(O)(c1ccccc1)c1ccccc1 | 1.47
CCOP(=O)(Nc1cccc2ccccc12)OCC | 2.96
CP(=O)(Nc1cccc(Br)c1)Oc1ccccc1 (stereo not given) | -4.61
Cc1cc(C)cc(OP(C)(=O)Nc2ccccn2)c1 (stereo not given) | -0.348
Cc1ccc(NCCc2c([N+](=O)[O-])cc([N+](=O)[O-])cc2[N+](=O)[O-])cc1 | 16.4
Nc1cccc2c([As](=O)(O)O)cccc12 | 14.2
CCCOP(=S)(Nc1nc(N)cc(=O)[nH]1)OCCC | 0.149
Cc1ccc(C)c(NP(C)(=O)Oc2ccccc2)c1 (stereo not given) | -1.76
O=[As](O)(c1cccc(O)c1)c1cccc(O)c1 | 3.43

SMILES | RFP signal change [%]
Cc1cccc(OCC(=O)OC2CN3CCC2CC3)c1 (stereo not given) | 0.652
Cc1cc(C)cc(OP(C)(=O)Nc2ccc(C)cc2C)c1 (stereo not given) | 0.368
CCOC(=O)c1ccc(NP(C)(=O)Oc2cc(C)cc(C)c2)cc1 (stereo not given) | 0.633
O=C(OC1CN2CCC1CC2)c1ccc(Cl)cc1 (stereo not given) | 3.36
COc1cc(C(=O)NCC2(N3CCOCC3)CCCCC2)cc(Cl)c1OC(C)C | -7.85
O=[As](O)(O)c1cccnc1 | 4.31
COc1ccccc1OP(C)(=O)Nc1cccc(Br)c1 (stereo not given) | 0.502
CS(=O)(=O)c1ccc(Cl)c(NC(=O)COC(=O)C(O)(c2ccccc2)c2ccccc2)c1 | 1.85
N#CCCN(C(=O)COC(=O)C(O)(c1ccccc1)c1ccccc1)c1ccc(F)cc1 | -1.51
CN(C(=O)Cc1ccccc1)[C@@H]1CC[C@]2(CCCO2)C[C@H]1N1CCCC1 | 3.83
CCOP1(=S)c2c(C)nn(CCC#N)c2N=C(c2ccc(F)cc2)N1C (stereo not given) | 1.33
CN(C)C(=O)c1cc([N+](=O)[O-])cc2c1-c1c(cc([N+](=O)[O-])cc1[N+](=O)[O-])C2=O | -6.81
O=[N+]([O-])c1ccc2c(c1)nnn2O | 2.89
CN(C(=O)Cc1ccc(Cl)c(Cl)c1)[C@H]1CC[C@@]2(CCCO2)C[C@@H]1N1CCCC1 | 7.13
CC1=NCCc2c1[nH]c1ccccc21.O=[N+]([O-])c1cc([N+](=O)[O-])c(O)c([N+](=O)[O-])c1 | 5.82
NC(=O)Nc1ccc([As](=O)(O)O)cc1 | 1.48
Nc1ccccc1[As](=O)(O)c1ccccc1 | 1.7
O=C(O)COc1ccc([As](=O)(O)O)cc1[N+](=O)[O-] | 0.257
CCOP1(=S)c2c(C)nn(CCC#N)c2N=C(c2ccccc2F)N1C (stereo not given) | -4.91
O=C(O)c1cccc(Nc2c([N+](=O)[O-])cc([N+](=O)[O-])cc2[N+](=O)[O-])c1 | -3.1
O=P(Nc1nccs1)(c1ccccc1)c1nc2ccccc2s1 (stereo not given) | 2.82
O=P(Nc1nccs1)(Oc1ccccc1)Oc1ccccc1 | -1.65

SMILES | RFP signal change [%]
CS(=O)(=O)c1cc([N+](=O)[O-])c2no[n+]([O-])c2c1 | 4.55
Nc1cccc([As](=O)(O)c2ccccc2)c1 | 3.74
CP(=O)(Nc1ccc(SC(F)(F)F)cc1)Oc1ccccc1 (stereo not given) | -0.751
CCCOc1ccc(NP(C)(=O)Oc2ccc(Cl)cc2)cc1 (stereo not given) | 1.38
O=P1(Nc2ccc(Br)cn2)COc2ccccc2OC1 | -1.01
NS(=O)(=O)c1cccc(NC(=O)COC(=O)C(O)(c2ccccc2)c2ccccc2)c1 | -0.782
Cc1ccc(OCC(=O)OC2CN3CCC2CC3)cc1 (stereo not given) | 5.43
O=[As](O)(c1cccs1)c1cccs1 | 2.23
COc1ccc(-c2ccccn2)cc1.O=[N+]([O-])c1cc([N+](=O)[O-])c(O)c([N+](=O)[O-])c1 | 6.75
O=P1(Nc2ncccn2)COc2ccccc2OC1 | 6.37
COc1ccccc1OP(C)(=O)Nc1c(C)cccc1C (stereo not given) | -1.15
CN1CCCCC1COC(=O)C1(O)c2ccccc2CCc2ccccc21 (stereo not given) | -8.49
O=[N+]([O-])c1cc([N+](=O)[O-])c(Nc2nnnn2CCO)c([N+](=O)[O-])c1 | 0.64
CN(C)C1(CNC(=O)c2ccc(S(C)(=O)=O)cc2)CCCCC1 | 5.98
CC1=C2N=C(C=C3N=C(C(C)=C4[N-][C@@](C)([C@@H]5N=C1[C@](C)(CCC(=O)NC[C@@H](C)OP(=O)([O-])O[C@H]1[C@@H](O)[C@@H](n6cnc7cc(C)c(C)cc76)O[C@@H]1CO)[C@H]5CC(N)=O)[C@@](C)(CC(N)=O)[C@@H]4CCC(N)=O)[C@@](C)(CC(N)=O)[C@@H]3CCC(N)=O)C(C)(C)[C@@H]2CCC(N)=O.[C-]#N.[Co+3] | 4.89
CCOC(=O)C(CC)C1=NC(C)(C)Cc2ccccc21.O=[N+]([O-])c1cc([N+](=O)[O-])c(O)c([N+](=O)[O-])c1 (stereo not given) | 1.75
O=C(/C=C/c1ccccc1)OC1CN2CCC1CC2 (stereo not given) | -1.54
CCCC1OP(=O)(Nc2ccccc2)OCC1CC (stereo not given) | 3.52
Cc1nn(-c2ccccc2)c2c1P(=O)(N1CCOCC1)N(C)C(c1ccccc1)=N2 (stereo not given) | 2.29
CC1CCC(C(C)C)C(OP(=O)(Nc2ccccn2)c2ccccc2)C1 (stereo not given) | -11.2
Cc1ccc(C(=O)OC2CN3CCC2CC3)cc1 (stereo not given) | 2.79
COc1cc(C2NCCC3(OCCO3)C2(C)C)cc(OC)c1OC.O=[N+]([O-])c1cc([N+](=O)[O-])c(O)c([N+](=O)[O-])c1 (stereo not given) | 1.43

SMILES | RFP signal change [%]
CC(C)/C=N\N=C(\N)N[N+](=O)[O-] | -0.153
CN(C(=O)Cc1ccc(Cl)c(Cl)c1)[C@@H]1CCCC[C@H]1N1CCCC1 | 3.11
Cc1ccc(S(=O)(=O)N(CCCN)CCCc2c(C)nc(N)[nH]c2=O)cc1.O=[N+]([O-])c1cc([N+](=O)[O-])c(O)c([N+](=O)[O-])c1 | 4.23
CC1(CBr)Cn2c(nc3ccccc3c2=O)S1 (stereo not given) | 3.47
Cc1nc2ccc3ccccc3c2s1.O=[N+]([O-])c1cc([N+](=O)[O-])c(O)c([N+](=O)[O-])c1 | 6.74
O=[N+]([O-])c1cc([N+](=O)[O-])c(-c2cnn(-c3ccccc3)c2)c([N+](=O)[O-])c1 | -12.8
COc1ccccc1CNC(=O)COC(=O)C(O)(c1ccccc1)c1ccccc1 | -1.35
CN(Cc1cccnc1)C(=O)COc1ccc(Cl)c(Cl)c1.O=[N+]([O-])c1cc([N+](=O)[O-])c(O)c([N+](=O)[O-])c1 | 5.74
O=P1(N(CCCl)CCCl)NCCC(C(F)(F)F)O1 (stereo not given) | 4.42
Clc1n[nH]nc1-c1nn[nH][15n]1 | 2.68
CC(C)(C)C(=O)NC(Sc1ncccn1)C(Cl)(Cl)Cl (stereo not given) | 4.06
O=C(O)C(O)c1ccc(N(CCCl)CCCl)cc1.c1ccncc1 (stereo not given) | 4.98
O=P1(Nc2ccccn2)COc2ccccc2OC1 | -0.902
CCC1=CC2Cc3nc4ccc(Cl)cc4c(N)c3C(C1)C2 (stereo not given) | -9.68
CCOP(=O)(NC(=NC(C)c1ccccc1)NC(C)c1ccccc1)OCC (stereo not given) | 2.18
Nc1ccc(CCCCOc2ccccc2)cc1.O=[N+]([O-])c1cc([N+](=O)[O-])c(O)c([N+](=O)[O-])c1 | -10.1
O=[N+]([O-])c1cc([N+](=O)[O-])c(-n2nnc3ccccc32)c([N+](=O)[O-])c1 | 7.96
CN(CCCl)Cc1cc(Cl)c(NC2=NCCN2)c(Cl)c1 | 4.96
CCOP(=O)(Nc1ccc(C)cn1)OCC | -0.475
